Experimental data as given in publication PMC3665532.
These are yes or no findings as the source states them, for the method shown. In cells and extracts the contact can be indirect. Some results given as binding are weak or reduced against the parent protein; the word gives no strength.

Molecular target: T1, potassium-chloride cotransporter 3 (KCC3), wild type, transiently expressed (UniProt Q9UHW9)
T1 sequence: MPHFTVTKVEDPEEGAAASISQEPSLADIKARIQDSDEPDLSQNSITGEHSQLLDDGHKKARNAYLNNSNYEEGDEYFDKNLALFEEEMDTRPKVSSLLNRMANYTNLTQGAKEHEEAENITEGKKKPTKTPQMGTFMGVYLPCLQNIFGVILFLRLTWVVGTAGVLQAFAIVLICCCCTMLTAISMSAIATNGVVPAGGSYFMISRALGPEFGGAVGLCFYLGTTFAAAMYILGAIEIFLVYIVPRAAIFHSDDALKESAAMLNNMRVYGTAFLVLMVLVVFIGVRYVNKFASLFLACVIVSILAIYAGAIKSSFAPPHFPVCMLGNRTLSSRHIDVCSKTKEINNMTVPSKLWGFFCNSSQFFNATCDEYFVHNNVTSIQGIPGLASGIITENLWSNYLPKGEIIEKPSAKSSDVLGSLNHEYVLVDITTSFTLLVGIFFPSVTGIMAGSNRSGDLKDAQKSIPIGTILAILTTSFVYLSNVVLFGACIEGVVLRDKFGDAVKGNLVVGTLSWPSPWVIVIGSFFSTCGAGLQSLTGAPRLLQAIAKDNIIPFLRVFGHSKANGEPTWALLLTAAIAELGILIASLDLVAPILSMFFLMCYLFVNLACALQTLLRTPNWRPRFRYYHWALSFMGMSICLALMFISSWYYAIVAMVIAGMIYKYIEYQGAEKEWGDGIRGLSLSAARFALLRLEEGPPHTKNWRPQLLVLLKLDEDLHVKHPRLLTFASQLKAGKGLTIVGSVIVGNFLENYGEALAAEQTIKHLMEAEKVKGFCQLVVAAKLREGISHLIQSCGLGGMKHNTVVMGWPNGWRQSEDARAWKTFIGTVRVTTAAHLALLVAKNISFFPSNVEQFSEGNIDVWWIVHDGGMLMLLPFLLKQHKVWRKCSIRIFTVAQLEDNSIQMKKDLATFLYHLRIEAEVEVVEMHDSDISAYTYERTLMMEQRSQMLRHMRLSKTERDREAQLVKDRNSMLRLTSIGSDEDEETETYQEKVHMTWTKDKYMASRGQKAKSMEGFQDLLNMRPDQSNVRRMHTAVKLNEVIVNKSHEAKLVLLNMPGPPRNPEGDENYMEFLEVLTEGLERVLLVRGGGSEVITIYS
Assay: co-IP; HeLa cells transiently expressing KCC3 forms, lysed in RIPA buffer; magnetic beads coupled with KCC3 antibody; precipitate probed with Vav2 antibody

binding: binds
B1: Vav2 (guanine nucleotide exchange factor), endogenous in HeLa cells (protein, UniProt P52735 1-878)
chain: MEQWRQCGRWLIDCKVLPPNHRVVWPSAVVFDLAQALRDGVLLCQLLHNLSPGSIDLKDINFRPQMSQFLCLKNIRTFLKVCHDKFGLRNSELFDPFDLFDVRDFGKVISAVSRLSLHSIAQNKGIRPFPSEETTENDDDVYRSLEELADEHDLGEDIYDCVPCEDGGDDIYEDIIKVEVQQPMIRYMQKMGMTEDDKRNCCLLEIQETEAKYYRTLEDIEKNYMSPLRLVLSPADMAAVFINLEDLIKVHHSFLRAIDVSVMVGGSTLAKVFLDFKERLLIYGEYCSHMEHAQNTLNQLLASREDFRQKVEECTLKVQDGKFKLQDLLVVPMQRVLKYHLLLKELLSHSAERPERQQLKEALEAMQDLAMYINEVKRDKETLRKISEFQSSIENLQVKLEEFGRPKIDGELKVRSIVNHTKQDRYLFLFDKVVIVCKRKGYSYELKEIIELLFHKMTDDPMNNKDVKKSHGKMWSYGFYLIHLQGKQGFQFFCKTEDMKRKWMEQFEMAMSNIKPDKANANHHSFQMYTFDKTTNCKACKMFLRGTFYQGYMCTKCGVGAHKECLEVIPPCKFTSPADLDASGAGPGPKMVAMQNYHGNPAPPGKPVLTFQTGDVLELLRGDPESPWWEGRLVQTRKSGYFPSSSVKPCPVDGRPPISRPPSREIDYTAYPWFAGNMERQQTDNLLKSHASGTYLIRERPAEAERFAISIKFNDEVKHIKVVEKDNWIHITEAKKFDSLLELVEYYQCHSLKESFKQLDTTLKYPYKSRERSASRASSRSPASCASYNFSFLSPQGLSFASQGPSAPFWSVFTPRVIGTAVARYNFAARDMRELSLREGDVVRIYSRIGGDQGWWKGETNGRIGWFPSTYVEEEGIQ
